# According to patent publication US10047050B2, “3,4-di-substituted pyridine compound, methods of using and compositions comprising the same” (ARDEA BIOSCIENCES, INC., priority 2011, dated 2018):
# “And” between values parts separate entries of the source, which are not always exact repeats. Identical values can stand only once. The source gives many values for each of these; only a part stands here.
# Tested on: serum uric acid
# Test: Single-dose Phase I clinical trial, serum uric acid (sUA) 0-72 hours post-dose
# Format: in vivo, human
# Conditions: individual subjects 3-8
# Experimental: A Phase 1, Randomized, Double-Blind, Placebo-Controlled Study to Evaluate Safety, Tolerability, Pharmacokinetics and Preliminary Food Effect of Single Doses of a URAT1 Inhibitor, in Healthy Adult Male Volunteers.
# To assess safety, tolerability, pharmacokinetics and uricosuric effects after oral administration as single doses of a tablet formulation and the effect of food on bioavailability.
# Subjects receive a single, oral dose of active or placebo, at the following doses:
# Group 4: 20 mg (fasted) [sentinel dosing];
# 48 subjects in 6 dose groups, 8 subjects/group, are randomized 3:1 to receive active (6/group) or placebo (2/group). All study procedures are the same regardless of whether subject receives active or placebo. The total duration of subject participation, including screening period, is ˜2-4 weeks, and the total volume of blood collected from each subject during the entire study <500 mL, (less than typically collected during a volunteer blood donation).
# 5 mg and 20 mg, active and placebo, tablets packaged in 35 count HDPE bottles, stored at controlled room temperature (15-30° C.). Placebo tablets are designed to match the active tablets—identical size, form, taste, and color, and containing the same excipients. 2 mg was dosed as an oral solution.
# Subjects dosed on the morning of Day 1 with ˜240 mL of room temp water.
# Fasted: subjects are dosed after overnight fast >10 hours and remain fasted until >4 hours post-dose.
# Fed: subjects fast overnight for >10 hours, then are dosed 30 mins after completing standard moderate fat breakfast (no high fructose corn syrup).
# Serum samples are collected at:
# PD samples are frozen (−20° C.) and stored; all samples from a given subject assayed in a single analytical run.
# [1] = Group 4, 20 mg single oral dose, fasted, 36 h post-dose
# [2] = Group 4, 20 mg single oral dose, fasted, 48 h post-dose
# [3] = Group 4, 20 mg single oral dose, fasted, 54 h post-dose
# [4] = Group 4, 20 mg single oral dose, fasted, 60 h post-dose
# [5] = Group 4, 20 mg single oral dose, fasted, 72 h post-dose
# [6] = Group 5, 20 mg single oral dose, fed, 0 h (baseline)
# [7] = Group 5, 20 mg single oral dose, fed, 6 h post-dose
# [8] = Group 5, 20 mg single oral dose, fed, 12 h post-dose
# [9] = Group 5, 20 mg single oral dose, fed, 24 h post-dose
# [10] = Group 5, 20 mg single oral dose, fed, 30 h post-dose
# [11] = Group 5, 20 mg single oral dose, fed, 36 h post-dose
# [12] = Group 5, 20 mg single oral dose, fed, 48 h post-dose
# [13] = Group 5, 20 mg single oral dose, fed, 54 h post-dose
# [14] = Group 5, 20 mg single oral dose, fed, 60 h post-dose
# [15] = Group 5, 20 mg single oral dose, fed, 72 h post-dose
# [16] = Group 6, 40 mg single oral dose, fasted, 12 h post-dose
# [17] = Group 6, 40 mg single oral dose, fasted, 24 h post-dose
# [18] = Group 6, 40 mg single oral dose, fasted, 30 h post-dose
# [19] = Group 6, 40 mg single oral dose, fasted, 36 h post-dose
compound,measurement,setting,value
CC(C)(Sc1ccncc1-c1ccc(C#N)c2ccccc12)C(=O)O [2-((3-(4-cyanonaphthalen-1-yl)pyridin-4-yl)thio)-2-methylpropanoic acid],% sUA reduction (from baseline),[1],−52.6% and −46.1% and −45.9% and −45.2% and −52.5% and −48.2%
same,Absolute sUA concentration,[1],3.7 mg/dL and 4.1 mg/dL and 4.0 mg/dL and 3.4 mg/dL and 2.8 mg/dL and 2.9 mg/dL
same,% sUA reduction (from baseline),[2],−48.7% and −35.5% and −36.5% and −38.7% and −42.4% and −32.1%
same,Absolute sUA concentration,[2],4.0 mg/dL and 4.9 mg/dL and 4.7 mg/dL and 3.8 mg/dL (2×) and 3.4 mg/dL
same,% sUA reduction (from baseline),[3],−48.7% and −32.9% and −27.0% and −37.1% and −45.8% and −33.9%
same,Absolute sUA concentration,[3],4.0 mg/dL and 5.1 mg/dL and 5.4 mg/dL and 3.9 mg/dL and 3.2 mg/dL and 3.7 mg/dL
same,% sUA reduction (from baseline),[4],−46.2% and −32.9% and −29.7% and −35.5% and −45.8% and −35.7%
same,Absolute sUA concentration,[4],4.2 mg/dL and 5.1 mg/dL and 5.2 mg/dL and 4.0 mg/dL and 3.2 mg/dL and 3.6 mg/dL
same,% sUA reduction (from baseline),[5],−28.2% and −15.8% and −14.9% and −16.1% and −30.5% and −23.2%
same,Absolute sUA concentration,[5],5.6 mg/dL and 6.4 mg/dL and 6.3 mg/dL and 5.2 mg/dL and 4.1 mg/dL and 4.3 mg/dL
same,% sUA reduction (from baseline),[6],0%
same,Absolute sUA concentration,[6],8.1 mg/dL and 7.8 mg/dL and 7.6 mg/dL and 6.4 mg/dL and 6.3 mg/dL and 6.1 mg/dL
same,% sUA reduction (from baseline),[7],−38.3% and −46.2% and −53.9% and −43.8% and −42.9% and −42.6%
same,Absolute sUA concentration,[7],5.0 mg/dL and 4.2 mg/dL and 3.5 mg/dL (2×) and 3.6 mg/dL (2×)
same,% sUA reduction (from baseline),[8],−50.6% and −52.6% and −68.4% and −60.9% and −52.4% and −54.1%
same,Absolute sUA concentration,[8],4.0 mg/dL and 3.7 mg/dL and 2.4 mg/dL and 2.5 mg/dL and 3.0 mg/dL and 2.8 mg/dL
same,% sUA reduction (from baseline),[9],−44.4% (2×) and −41.0% and −59.2% and −50.0% and −37.7%
same,Absolute sUA concentration,[9],4.5 mg/dL and 4.6 mg/dL and 3.1 mg/dL and 3.2 mg/dL and 3.5 mg/dL and 3.8 mg/dL
same,% sUA reduction (from baseline),[10],−46.9% and −46.2% and −56.6% and −53.1% and −49.2% and −36.1%
same,Absolute sUA concentration,[10],4.3 mg/dL and 4.2 mg/dL and 3.3 mg/dL and 3.0 mg/dL and 3.2 mg/dL and 3.9 mg/dL
same,% sUA reduction (from baseline),[11],−49.4% and −48.7% and −56.6% and −53.1% and −52.4% and −39.3%
same,Absolute sUA concentration,[11],4.1 mg/dL and 4.0 mg/dL and 3.3 mg/dL and 3.0 mg/dL (2×) and 3.7 mg/dL
same,% sUA reduction (from baseline),[12],−40.7% and −38.5% and −38.2% and −42.2% and −42.9% and −23.0%
same,Absolute sUA concentration,[12],4.8 mg/dL (2×) and 4.7 mg/dL (2×) and 3.7 mg/dL and 3.6 mg/dL
same,% sUA reduction (from baseline),[13],−43.2% and −38.5% and −38.2% and −42.2% and −42.9% and −27.9%
same,Absolute sUA concentration,[13],4.6 mg/dL and 4.8 mg/dL and 4.7 mg/dL and 3.7 mg/dL and 3.6 mg/dL and 4.4 mg/dL
same,% sUA reduction (from baseline),[14],−44.4% (2×) and −39.7% and −38.2% and −45.3% and −29.5%
same,Absolute sUA concentration,[14],4.5 mg/dL and 4.7 mg/dL (2×) and 3.5 mg/dL (2×) and 4.3 mg/dL
same,% sUA reduction (from baseline),[15],−34.6% and −29.5% and −26.3% and −29.7% and −33.3% and −18.0%
same,Absolute sUA concentration,[15],5.3 mg/dL and 5.5 mg/dL and 5.6 mg/dL and 4.5 mg/dL and 4.2 mg/dL and 5.0 mg/dL
same,Absolute sUA concentration,"Group 6, 40 mg single oral dose, fasted, 0 h (baseline)",7.6 mg/dL and 7.4 mg/dL and 6.8 mg/dL and 6.1 mg/dL and 5.9 mg/dL and 5.7 mg/dL
same,Absolute sUA concentration,"Group 6, 40 mg single oral dose, fasted, 6 h post-dose",5.8 mg/dL and 3.6 mg/dL and 4.2 mg/dL and 2.8 mg/dL and 3.0 mg/dL and 3.3 mg/dL
same,% sUA change (from baseline),[16],−69.5% and −59.6%
same,Absolute sUA concentration,[16],4.5 mg/dL and 2.3 mg/dL (2×) and 3.2 mg/dL and 2.2 mg/dL and 1.8 mg/dL
same,% sUA change (from baseline),[17],−47.4% and −63.5% and −51.5% and −55.7% and −71.2% and −56.1%
same,Absolute sUA concentration,[17],4.0 mg/dL and 2.7 mg/dL (2×) and 3.3 mg/dL and 1.7 mg/dL and 2.5 mg/dL
same,% sUA change (from baseline),[18],−53.9% and −66.2% and −58.8% and −55.7% and −74.6% and −54.4%
same,Absolute sUA concentration,[18],3.5 mg/dL and 2.5 mg/dL and 2.8 mg/dL and 2.7 mg/dL and 1.5 mg/dL and 2.6 mg/dL
same,% sUA change (from baseline),[19],−59.2% and −66.2% and −60.3% and −55.7% and −74.6% and −52.6%
same,Absolute sUA concentration,[19],3.1 mg/dL and 2.5 mg/dL and 2.7 mg/dL (3×) and 1.5 mg/dL
same,Absolute sUA concentration,"Group 6, 40 mg single oral dose, fasted, 48 h post-dose",3.5 mg/dL (2×) and 3.7 mg/dL and 3.8 mg/dL and 2.6 mg/dL and 3.1 mg/dL
same,Absolute sUA concentration,"Group 6, 40 mg single oral dose, fasted, 54 h post-dose",3.3 mg/dL and 3.9 mg/dL and 3.4 mg/dL (2×) and 3.7 mg/dL and 2.7 mg/dL
same,Absolute sUA concentration,"Group 6, 40 mg single oral dose, fasted, 60 h post-dose",3.3 mg/dL and 3.7 mg/dL (2×) and 3.5 mg/dL and 2.8 mg/dL and 3.6 mg/dL
same,Absolute sUA concentration,"Group 6, 40 mg single oral dose, fasted, 72 h post-dose",4.5 mg/dL (2×) and 5.1 mg/dL and 4.9 mg/dL and 4.1 mg/dL and 4.6 mg/dL
